From paper PMC4061450
No constants are given. Whether binding was seen depends on the method and setting. In cells and extracts the contact can be indirect. Some results given as binding are weak or reduced against the parent protein; the word gives no strength.

Target: T1, Derlin-1 (human (endogenous in A549)) (UniProt Q9BUN8)
T1 sequence: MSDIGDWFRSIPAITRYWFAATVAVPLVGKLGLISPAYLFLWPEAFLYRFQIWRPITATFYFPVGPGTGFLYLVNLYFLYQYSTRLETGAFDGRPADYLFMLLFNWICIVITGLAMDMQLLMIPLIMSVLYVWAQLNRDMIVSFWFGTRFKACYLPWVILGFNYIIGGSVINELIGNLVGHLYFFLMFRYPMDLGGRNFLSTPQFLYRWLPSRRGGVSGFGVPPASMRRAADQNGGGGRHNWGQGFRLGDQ
Experiment: co-IP; A549 cells treated with TM for 8 h; lysate (50 mM Tris pH 7.5, 150 mM NaCl, 1 mM EDTA, 1% Triton X-100) incubated with Derlin-1 antibody, A + G agarose beads, 4°C; western blot with p62 and Derlin-1 antibodies

For p62/SQSTM1 (from UniProt Q13501 1-440), the binding was “binds”.
